These are yes or no findings as the source states them, for the method shown. In cells and extracts the contact can be indirect. Some entries that bind do so weakly or less than the wild type.
Legend:
[1] = biological target: EZH2 (wild type, endogenous in WT mouse ESCs) (mouse (endogenous in E14TG2a ESCs)) (UniProt Q61188); assay: co-IP; immunoprecipitation of EZH2 from 1 mg total protein extract of mouse ESC lines with homemade anti-EZH2 (AC22) cross-linked sepharose beads, 3 to 4 h at 4 °C; S300 buffer (20 mM Tris-HCl pH 8.0, 300 mM NaCl, 10% glycerol, 0.2% NP-40), 5 washes; western blot
[2] = biological target: EZH2 Y726D mutant (homozygous knock-in in Ezh1 KO mouse ESCs) (mouse (endogenous in E14TG2a ESCs)) (UniProt Q61188); assay: as above

Chains of the proteins cited; added tags and fusions are not shown. Lines headed by an entry give the natural chain unless they say otherwise; changes in a name come on top.
UniProt Q61188: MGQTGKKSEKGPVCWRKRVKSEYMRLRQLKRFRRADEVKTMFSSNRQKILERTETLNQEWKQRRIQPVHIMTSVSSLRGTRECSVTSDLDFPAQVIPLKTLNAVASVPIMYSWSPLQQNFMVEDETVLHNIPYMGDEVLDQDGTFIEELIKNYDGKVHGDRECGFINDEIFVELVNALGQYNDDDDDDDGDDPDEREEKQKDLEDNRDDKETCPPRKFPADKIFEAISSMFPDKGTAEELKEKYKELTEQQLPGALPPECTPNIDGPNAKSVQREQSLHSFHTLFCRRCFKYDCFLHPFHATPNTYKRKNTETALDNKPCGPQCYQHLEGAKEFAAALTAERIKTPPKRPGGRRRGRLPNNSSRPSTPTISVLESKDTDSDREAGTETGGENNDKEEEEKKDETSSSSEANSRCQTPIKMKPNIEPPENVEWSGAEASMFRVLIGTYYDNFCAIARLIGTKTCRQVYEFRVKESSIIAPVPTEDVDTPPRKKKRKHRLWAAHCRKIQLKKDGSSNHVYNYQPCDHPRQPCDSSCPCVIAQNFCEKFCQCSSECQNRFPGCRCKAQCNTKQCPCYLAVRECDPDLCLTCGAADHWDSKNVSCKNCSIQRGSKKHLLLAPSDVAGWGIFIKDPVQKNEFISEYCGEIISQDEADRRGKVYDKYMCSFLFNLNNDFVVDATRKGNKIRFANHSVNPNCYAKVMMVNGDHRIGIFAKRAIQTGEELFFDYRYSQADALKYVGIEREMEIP
UniProt Q921E6: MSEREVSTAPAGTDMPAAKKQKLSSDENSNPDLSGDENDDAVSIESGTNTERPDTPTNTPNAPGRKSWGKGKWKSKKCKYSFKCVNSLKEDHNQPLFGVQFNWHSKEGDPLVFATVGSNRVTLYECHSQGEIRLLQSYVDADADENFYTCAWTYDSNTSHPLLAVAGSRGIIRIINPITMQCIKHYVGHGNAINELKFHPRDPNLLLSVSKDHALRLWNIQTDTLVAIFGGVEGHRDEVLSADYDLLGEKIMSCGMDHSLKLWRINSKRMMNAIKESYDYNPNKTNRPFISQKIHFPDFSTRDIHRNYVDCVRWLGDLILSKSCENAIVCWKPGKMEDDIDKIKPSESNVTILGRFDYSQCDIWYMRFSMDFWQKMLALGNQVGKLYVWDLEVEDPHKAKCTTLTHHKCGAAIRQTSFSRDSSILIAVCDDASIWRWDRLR
UniProt Q80U70: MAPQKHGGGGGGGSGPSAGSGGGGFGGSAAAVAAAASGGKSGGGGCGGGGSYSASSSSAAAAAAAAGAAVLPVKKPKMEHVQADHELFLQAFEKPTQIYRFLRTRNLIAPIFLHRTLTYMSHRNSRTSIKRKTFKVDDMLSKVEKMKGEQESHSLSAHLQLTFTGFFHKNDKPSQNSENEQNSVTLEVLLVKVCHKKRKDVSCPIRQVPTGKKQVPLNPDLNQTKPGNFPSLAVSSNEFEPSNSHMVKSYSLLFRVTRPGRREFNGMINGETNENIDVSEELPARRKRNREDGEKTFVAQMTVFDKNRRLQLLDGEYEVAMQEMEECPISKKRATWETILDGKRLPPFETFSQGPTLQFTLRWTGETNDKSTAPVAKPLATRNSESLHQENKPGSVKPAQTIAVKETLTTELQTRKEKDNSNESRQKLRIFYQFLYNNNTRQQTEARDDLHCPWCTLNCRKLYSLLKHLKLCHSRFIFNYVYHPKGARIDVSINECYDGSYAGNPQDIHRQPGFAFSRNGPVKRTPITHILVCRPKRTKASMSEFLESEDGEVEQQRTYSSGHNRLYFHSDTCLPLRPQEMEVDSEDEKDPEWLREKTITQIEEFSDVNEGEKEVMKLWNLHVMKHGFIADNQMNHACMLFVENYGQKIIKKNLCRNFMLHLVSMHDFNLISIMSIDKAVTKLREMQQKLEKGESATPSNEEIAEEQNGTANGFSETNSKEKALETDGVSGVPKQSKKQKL

Substance | binding [1] | binding [2]
EED (from UniProt Q921E6 1-441) | binds | binds
SUZ12 (from UniProt Q80U70 1-741) |  | binds
